# According to PubChem BioAssay (EPA / NIEHS):
# Where “and” joins values, the source holds several entries; their conditions need not be identical. Identical values can stand only once. This list was built around the results that the source calls inconclusive (neither active nor inactive); the mix of calls is not that of the screen. Potencies of inconclusive entries are doubtful fits and often do not repeat. Calls of active or inactive are those of the source. How the source made its calls: active means hit-call score of the fitted dose curve at least 0.9, where 1 is the maximum; inconclusive means response in the unintended direction; inactive means score below 0.9.
# Test: VALA_TUBHUV_Antagonist_CellCount: Viability Assessment in the VALA Sciences human Umbilical Vein Endothelial Tubule Formation (TUBHUV) Antagonism Assay (AID 2284310)
# How it was run: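 Read-out is imaged cell count after nuclear and CD31 staining, fitted against 0.1% DMSO vehicle. Compounds were added for 3 days, in 10 ng/ml VEGF assay medium, to HUVEC–HDF co-cultures pre-grown 3 days.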
Compound,AC50,outcome
Clc1ccc(Cl)c(Cl)c1,inconclusive: 7.58 µM,–
CC(C)(C)c1ccc(CSc2cnn(C(C)(C)C)c(=O)c2Cl)cc1,inconclusive: 11.3 µM,–
CO[C@@H]1[C@H](OC(=O)NC(=O)CCl)CC[C@]2(CO2)[C@H]1[C@@]1(C)O[C@@H]1CC=C(C)C,inconclusive: 0.00145 µM,inactive
CC(C)(C)c1cc(O)ccc1O,inconclusive: 0.00434 µM,–
O=[N+]([O-])c1cc(C(F)(F)F)c(Cl)c([N+](=O)[O-])c1Nc1ncc(C(F)(F)F)cc1Cl,–,inactive
Oc1ccc2ccc3cccc4ccc1c2c34,–,inactive
ClCC(Cl)CCl,inconclusive: 0.00157 µM,–
Oc1cc(Cl)ccc1Oc1ccc(Cl)cc1Cl,–,inactive
Oc1ccc(C(c2ccc(O)cc2)(C(F)(F)F)C(F)(F)F)cc1,inconclusive: 0.00962 µM,–
Cc1ccc(N)cc1N,–,inactive
N#Cc1nn(-c2c(Cl)cc(C(F)(F)F)cc2Cl)c(N)c1S(=O)C(F)(F)F (stereo not drawn),inconclusive: 0.00129 µM,–

# Test: VALA_TUBIPS_Agonist_TubuleLength: VALA Sciences human iPS-derived Endothelial Tubule Formation (TUBIPS) Agonism Assay (AID 2284311)
# How it was run: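 Agonist-mode readout is the gain in imaged tubule length versus DMSO baseline. It was measured by fluorescence high-content imaging 72 h after dosing human iPSC-derived endothelial cells.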
Compound,outcome,AC50
Clc1ccc(Cl)c(Cl)c1,inactive,–
CC(C)(C)c1ccc(CSc2cnn(C(C)(C)C)c(=O)c2Cl)cc1,–,inconclusive: 50 µM
CO[C@@H]1[C@H](OC(=O)NC(=O)CCl)CC[C@]2(CO2)[C@H]1[C@@]1(C)O[C@@H]1CC=C(C)C,–,inconclusive: 0.988 nM and inconclusive: 1.7 µM
CC(C)(C)c1cc(O)ccc1O,inactive,–
O=[N+]([O-])c1cc(C(F)(F)F)c(Cl)c([N+](=O)[O-])c1Nc1ncc(C(F)(F)F)cc1Cl,–,inconclusive: 10 µM
Oc1ccc2ccc3cccc4ccc1c2c34,–,inconclusive: 50 µM
ClCC(Cl)CCl,–,inconclusive: 50 µM
Oc1cc(Cl)ccc1Oc1ccc(Cl)cc1Cl,–,inconclusive: 7.57 µM
Oc1ccc(C(c2ccc(O)cc2)(C(F)(F)F)C(F)(F)F)cc1,–,inconclusive: 50 µM
Cc1ccc(N)cc1N,–,inconclusive: 11.8 µM
N#Cc1nn(-c2c(Cl)cc(C(F)(F)F)cc2Cl)c(N)c1S(=O)C(F)(F)F (stereo not drawn),inactive,–

# Test: VALA_TUBIPS_Antagonist_TubuleLength: VALA Sciences human iPS-derived Endothelial Tubule Formation (TUBIPS) Antagonist Assay (AID 2284313)
# How it was run: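 Tubule length was quantified by high-content imaging of CD31- and nuclear-stained cells, with 0.1% DMSO as neutral and 100 uM suramin as inhibition control. Compounds were applied for 3 days, in 10 ng/ml VEGF, to cultures pre-grown 3 days.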
Compound,AC50,outcome
Clc1ccc(Cl)c(Cl)c1,inconclusive: 50 µM,–
CC(C)(C)c1ccc(CSc2cnn(C(C)(C)C)c(=O)c2Cl)cc1,–,inactive
CC(C)(C)c1cc(O)ccc1O,–,inactive
O=[N+]([O-])c1cc(C(F)(F)F)c(Cl)c([N+](=O)[O-])c1Nc1ncc(C(F)(F)F)cc1Cl,inconclusive: 0.22 µM,–
ClCC(Cl)CCl,inconclusive: 0.00129 µM,–
Oc1cc(Cl)ccc1Oc1ccc(Cl)cc1Cl,inconclusive: 7.49 µM,–
Oc1ccc(C(c2ccc(O)cc2)(C(F)(F)F)C(F)(F)F)cc1,–,inactive
Cc1ccc(N)cc1N,inconclusive: 9.92 µM,–

# Test: VALA_MIGHUV2_Bcatenin: VALA Sciences human Umbilical Vein Endothelial Cell Migration (MIGHUV) Assay, Nuclear Translocation of beta-Catenin after Recovery (AID 2284315)
# How it was run: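 Nuclear beta-catenin imaged by immunofluorescence with Hoechst counterstain in fixed HUVEC, 24 h after scratch wounding and chemical addition. Six-point concentration-response in triplicate; activity scored as signal increase over 0.1% DMSO vehicle.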
Compound,AC50,outcome
Clc1ccc(Cl)c(Cl)c1,inconclusive: 1.31 nM,–
CC(C)(C)c1ccc(CSc2cnn(C(C)(C)C)c(=O)c2Cl)cc1,inconclusive: 9920 nM,–
CO[C@@H]1[C@H](OC(=O)NC(=O)CCl)CC[C@]2(CO2)[C@H]1[C@@]1(C)O[C@@H]1CC=C(C)C,inconclusive: 0.642 nM and active: 1.29 nM,–
CC(C)(C)c1cc(O)ccc1O,active: 82800 nM,–
O=[N+]([O-])c1cc(C(F)(F)F)c(Cl)c([N+](=O)[O-])c1Nc1ncc(C(F)(F)F)cc1Cl,inconclusive: 0.159 nM,–
Oc1ccc2ccc3cccc4ccc1c2c34,inconclusive: 6.7 nM,–
ClCC(Cl)CCl,inconclusive: 145 nM,–
Oc1cc(Cl)ccc1Oc1ccc(Cl)cc1Cl,inconclusive: 2.85 nM,–
Oc1ccc(C(c2ccc(O)cc2)(C(F)(F)F)C(F)(F)F)cc1,inconclusive: 11.3 nM,–
Cc1ccc(N)cc1N,–,inactive
N#Cc1nn(-c2c(Cl)cc(C(F)(F)F)cc2Cl)c(N)c1S(=O)C(F)(F)F (stereo not drawn),–,inactive

# Test: VALA_MIGHUV2_WoundArea: VALA Sciences human Umbilical Vein Endothelial Cell Migration (MIGHUV) Assay, Area of Scratch Wound after Recovery (AID 2284316)
# How it was run: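 Wound-area endpoint read by fluorescence imaging of Hoechst-stained nuclei after a 24 h recovery period following scratch of HUVEC monolayers (9000 cells/well). Chemicals dosed within 30 min post-scratch, triplicate 6-point series, 0.1% DMSO vehicle; Cytochalasin D positive control.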
Compound,AC50,outcome
Clc1ccc(Cl)c(Cl)c1,inconclusive: 0.00129 µM,–
CC(C)(C)c1ccc(CSc2cnn(C(C)(C)C)c(=O)c2Cl)cc1,active: 7.5 µM,–
CO[C@@H]1[C@H](OC(=O)NC(=O)CCl)CC[C@]2(CO2)[C@H]1[C@@]1(C)O[C@@H]1CC=C(C)C,inconclusive: 3.2 µM,inactive
CC(C)(C)c1cc(O)ccc1O,active: 73 µM,–
O=[N+]([O-])c1cc(C(F)(F)F)c(Cl)c([N+](=O)[O-])c1Nc1ncc(C(F)(F)F)cc1Cl,inconclusive: 0.00175 µM,–
Oc1ccc2ccc3cccc4ccc1c2c34,inconclusive: 9.92 µM,–
ClCC(Cl)CCl,–,inactive
Oc1cc(Cl)ccc1Oc1ccc(Cl)cc1Cl,inconclusive: 0.163 µM,–
Oc1ccc(C(c2ccc(O)cc2)(C(F)(F)F)C(F)(F)F)cc1,inconclusive: 0.00129 µM,–
N#Cc1nn(-c2c(Cl)cc(C(F)(F)F)cc2Cl)c(N)c1S(=O)C(F)(F)F (stereo not drawn),inconclusive: 50 µM,–
